## Percent effect of library compounds

Protein sequences, listed by entry. Tags and fused reporters are not part of them. Residues count along the entry.
UniProt I6X8D2, whole entry: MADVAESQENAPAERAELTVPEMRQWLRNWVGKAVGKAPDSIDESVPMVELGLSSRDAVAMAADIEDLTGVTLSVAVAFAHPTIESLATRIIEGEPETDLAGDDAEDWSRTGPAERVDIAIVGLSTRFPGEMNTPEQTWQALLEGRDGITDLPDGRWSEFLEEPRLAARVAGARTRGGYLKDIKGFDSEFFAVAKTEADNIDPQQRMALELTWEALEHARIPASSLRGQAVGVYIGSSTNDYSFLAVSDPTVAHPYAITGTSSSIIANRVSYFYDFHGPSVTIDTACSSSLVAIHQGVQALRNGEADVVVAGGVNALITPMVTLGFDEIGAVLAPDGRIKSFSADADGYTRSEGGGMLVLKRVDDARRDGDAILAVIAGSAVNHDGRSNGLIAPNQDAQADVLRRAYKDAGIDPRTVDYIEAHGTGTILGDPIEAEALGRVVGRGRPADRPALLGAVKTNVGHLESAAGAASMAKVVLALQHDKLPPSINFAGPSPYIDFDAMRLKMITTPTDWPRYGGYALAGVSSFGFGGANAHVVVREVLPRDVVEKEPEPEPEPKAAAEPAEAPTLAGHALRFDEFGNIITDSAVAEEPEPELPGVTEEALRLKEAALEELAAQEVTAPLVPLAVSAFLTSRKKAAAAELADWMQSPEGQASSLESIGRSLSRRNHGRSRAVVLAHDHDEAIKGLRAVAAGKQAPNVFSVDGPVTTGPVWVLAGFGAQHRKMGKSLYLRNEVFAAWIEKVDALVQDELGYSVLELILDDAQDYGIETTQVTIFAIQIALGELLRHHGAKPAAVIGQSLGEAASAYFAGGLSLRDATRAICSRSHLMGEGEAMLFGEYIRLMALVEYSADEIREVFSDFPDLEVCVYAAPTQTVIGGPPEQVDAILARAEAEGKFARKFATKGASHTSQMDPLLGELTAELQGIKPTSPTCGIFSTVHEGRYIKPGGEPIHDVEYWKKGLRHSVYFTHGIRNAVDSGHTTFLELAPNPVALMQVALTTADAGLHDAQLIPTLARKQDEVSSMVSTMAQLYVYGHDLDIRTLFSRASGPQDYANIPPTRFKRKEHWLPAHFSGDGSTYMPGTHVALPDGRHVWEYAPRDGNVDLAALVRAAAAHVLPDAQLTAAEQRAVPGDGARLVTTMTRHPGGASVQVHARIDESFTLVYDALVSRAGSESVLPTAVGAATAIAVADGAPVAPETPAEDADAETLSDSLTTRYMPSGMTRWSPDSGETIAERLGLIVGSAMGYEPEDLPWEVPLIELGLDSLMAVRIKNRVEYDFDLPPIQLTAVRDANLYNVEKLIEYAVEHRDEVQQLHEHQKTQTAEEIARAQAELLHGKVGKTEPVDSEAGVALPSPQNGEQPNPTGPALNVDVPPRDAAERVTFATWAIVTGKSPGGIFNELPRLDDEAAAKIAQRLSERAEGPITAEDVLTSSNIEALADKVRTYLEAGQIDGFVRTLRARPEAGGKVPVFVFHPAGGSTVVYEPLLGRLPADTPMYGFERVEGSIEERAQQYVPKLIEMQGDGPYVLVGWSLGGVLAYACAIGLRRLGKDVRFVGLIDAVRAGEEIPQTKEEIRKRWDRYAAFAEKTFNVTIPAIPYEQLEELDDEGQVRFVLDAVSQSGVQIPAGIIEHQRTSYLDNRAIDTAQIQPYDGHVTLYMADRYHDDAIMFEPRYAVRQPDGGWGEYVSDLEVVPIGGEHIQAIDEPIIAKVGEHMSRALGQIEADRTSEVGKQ
UniProt Q4DA54, 1-478: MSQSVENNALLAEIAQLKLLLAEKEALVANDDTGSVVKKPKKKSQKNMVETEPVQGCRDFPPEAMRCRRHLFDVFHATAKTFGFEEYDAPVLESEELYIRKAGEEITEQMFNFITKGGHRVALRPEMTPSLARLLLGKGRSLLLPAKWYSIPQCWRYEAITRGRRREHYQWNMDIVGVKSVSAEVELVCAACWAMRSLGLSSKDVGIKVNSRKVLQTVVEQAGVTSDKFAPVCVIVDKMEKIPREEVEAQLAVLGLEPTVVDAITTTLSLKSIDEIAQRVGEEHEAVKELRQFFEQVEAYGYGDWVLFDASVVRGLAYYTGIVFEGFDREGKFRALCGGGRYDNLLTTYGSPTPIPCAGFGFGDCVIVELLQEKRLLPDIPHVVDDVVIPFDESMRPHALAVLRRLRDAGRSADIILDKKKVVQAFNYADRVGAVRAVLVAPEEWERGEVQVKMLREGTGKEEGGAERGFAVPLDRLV
UniProt A4I591, 1-473: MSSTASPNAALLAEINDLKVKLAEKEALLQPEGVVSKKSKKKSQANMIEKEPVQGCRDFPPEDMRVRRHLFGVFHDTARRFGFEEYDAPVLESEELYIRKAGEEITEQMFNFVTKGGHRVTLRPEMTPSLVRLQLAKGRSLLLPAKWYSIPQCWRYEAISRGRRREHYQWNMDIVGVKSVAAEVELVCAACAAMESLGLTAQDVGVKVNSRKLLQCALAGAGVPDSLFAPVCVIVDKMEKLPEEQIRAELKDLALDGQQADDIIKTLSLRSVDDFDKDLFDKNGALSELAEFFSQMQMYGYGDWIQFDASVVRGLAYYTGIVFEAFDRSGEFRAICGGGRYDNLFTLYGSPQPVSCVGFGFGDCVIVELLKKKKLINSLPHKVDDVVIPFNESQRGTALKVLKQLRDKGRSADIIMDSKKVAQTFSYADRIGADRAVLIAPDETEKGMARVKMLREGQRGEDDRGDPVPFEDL

The values are deposited in ChEMBL (CHEMBL3988442, “University of Dundee, Small-Polar-MMV Screening Library” (2021)).

Pks13 thioesterase: 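Polyketide synthase Pks13, Mycobacterium tuberculosis (UniProt I6X8D2). Enzyme assay of the thioesterase domain of polyketide synthase 13; the read-out is not stated. Compounds at 30 µM. The record gives no direction; the compounds picked for IC50 retests had high values, so higher reads as stronger inhibition. Of about 67,000 compounds tested this way, about 300 (0.46%) reached 50% or more in at least one test.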
TcHisRS: 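Histidine-tRNA ligase, Trypanosoma cruzi CL Brener (UniProt Q4DA54). Enzyme assay of histidyl-tRNA synthetase; the read-out is not stated. Compounds at 30 µM. Direction is inferred from retests: higher values go with stronger inhibition. Size under these conditions: about 69,000 compounds, about 31 of them at 50% or above in at least one test.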
LiHisRS: 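Enzyme assay of histidyl-tRNA synthetase; the read-out is not stated. Target: Histidine-tRNA ligase, Leishmania infantum (UniProt A4I591). Concentration: 30 µM. Direction is inferred from retests: higher values go with stronger inhibition. The assay is labelled LdHisRS but filed under L. infantum. Of about 69,000 compounds tested this way, about 410 (0.6%) reached 50% or more in at least one test.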

Results are given as percent effect. How 0% and 100% were set is not recorded. Most values in the screen are low, and negative values occur. This is an unselected part of the compounds tested.

Result for Cc1ccsc1C(=O)Nc1ccc(N2CCC(O)CC2)c(C#N)c1 was Pks13 thioesterase: 4.497%; TcHisRS: 8.867%; LiHisRS: 12.33%.
Result for CCOC(=O)c1nc(CN2CCN(C(=O)NC3CCCCC3)CC2)cs1 was Pks13 thioesterase: -32.01%; TcHisRS: 8.287%; LiHisRS: 26.76%.
Result for CCOCc1nc(N2CCOCC2)sc1C(=O)NCCCc1ccco1 was Pks13 thioesterase: -24.28%; TcHisRS: 6%; LiHisRS: 16.44%.
Result for CCN1CCC(CC(=O)NCCc2nc(C)cc(C)n2)CC1 was Pks13 thioesterase: -12.31%; TcHisRS: 1.739%; LiHisRS: 13.33%.
Result for Cc1ccc(N2CCCc3sc(C(=O)NCCO)nc32)nn1 was Pks13 thioesterase: -16.04%; TcHisRS: -0.4975%; LiHisRS: 21.62%.
Result for CCN1CC(C(=O)N2CCc3cc(C(N)=O)n(C)c3C2)CCC1=O (centres unmarked) was Pks13 thioesterase: -11.54%; TcHisRS: -3.448%; LiHisRS: 20.51%.
Result for Cc1cnn(CC2CCCN2Cc2nc(C)c3ccccc3n2)c1 (centres unmarked) was Pks13 thioesterase: -14.52%; TcHisRS: 35.16%; LiHisRS: 10.71%.
Result for CCOc1ncccc1C(=O)N1CCCC(c2nccn2CCOC)C1 (centres unmarked) was Pks13 thioesterase: -6.89%; TcHisRS: 0%; LiHisRS: 19.05%.
Result for O=C(NCCCn1cccn1)C1CCC(=O)N(Cc2ccccc2F)C1 (centres unmarked) was Pks13 thioesterase: -8.888%; TcHisRS: -2.513%; LiHisRS: 7.2%.
Result for COc1ccc(OC)c(C(C)NC(=O)c2nn(C)c(C)c2Br)c1 (centres unmarked) was Pks13 thioesterase: -38.53%; TcHisRS: 4.663%; LiHisRS: 19.35%.
Result for Cc1ncc(CO)c(CN2CCCC2c2nc3c(C)cccc3[nH]2)c1O (centres unmarked) was Pks13 thioesterase: -14.64%; TcHisRS: 11.7%; LiHisRS: 9.375%.
Result for CS(=O)(=O)c1ccc(OCCNCc2ccc(F)cc2)cc1 was Pks13 thioesterase: -6.498%; TcHisRS: 0%; LiHisRS: 16.13%.
Result for CNC(=O)C1Cn2ccnc2C2(CCN(C(=O)c3ccoc3C)CC2)O1 (centres unmarked) was Pks13 thioesterase: -28.97%; TcHisRS: 5.464%; LiHisRS: 17.54%.
Result for CCN1CC(CN(C)Cc2nc(-c3cccc(Cl)c3)oc2C)CC1=O (centres unmarked) was Pks13 thioesterase: -5.302%; TcHisRS: 5%; LiHisRS: 12.24%.
Result for Cc1cc(C)c(C(=O)NC(CN2CCCC2)c2ccccc2)c(=O)[nH]1 (centres unmarked) was Pks13 thioesterase: -9.014%; TcHisRS: 3.867%; LiHisRS: 7.042%.
Result for Cn1cnnc1CNC(=O)CCCOc1ccccc1Cl was Pks13 thioesterase: -4.983%; TcHisRS: 1.786%; LiHisRS: -1.075%.
Result for CCn1cc(Cn2cc(Cl)c(N)n2)c(C)n1 was Pks13 thioesterase: -38.63%; TcHisRS: 4.762%; LiHisRS: -17.65%.
Result for COc1ncnc(N)c1CNCCc1ccc(-n2cccn2)cc1 was Pks13 thioesterase: 1.424%; TcHisRS: 12.06%; LiHisRS: 22.35%.
Result for Cc1cccc(OC2CCN(c3ccc(C#N)cn3)CC2)n1 was Pks13 thioesterase: 22.28%; TcHisRS: 5.155%; LiHisRS: 4.839%.
Result for CCc1nc(N2CCN(Cc3ncccc3C)CC2)c2cnn(C)c2n1 was Pks13 thioesterase: 0.006427%; TcHisRS: 3.614%; LiHisRS: 8%.
Result for C[C@@H]1CN(C(=O)CCN2CCOCC2)CC[C@]1(C)O was Pks13 thioesterase: -31.53%; TcHisRS: 4.082%; LiHisRS: 2.857%.
Result for Cc1cccc(NC(=O)CCNCc2c(C)nn(C)c2N(C)C)n1 was Pks13 thioesterase: -44.03%; TcHisRS: 2.618%; LiHisRS: 13.79%.
Result for CC(C)(C)OC(=O)N1CCn2c(nnc2C2CCCNC2)C1 (centres unmarked) was Pks13 thioesterase: -21.49%; TcHisRS: 7.576%; LiHisRS: 7.246%.
Result for CNc1cccc(C2CCCN(C(=O)c3cnccn3)C2)n1 (centres unmarked) was Pks13 thioesterase: 1.771%; TcHisRS: -1.064%; LiHisRS: 17.71%.
Result for CN(C)c1ncc(-c2ccc(NC(=O)[C@@H]3CCCCN3)cc2)cn1 was Pks13 thioesterase: 20.29%; TcHisRS: 10.17%; LiHisRS: 25.71%.
Result for Cc1ccc(CNc2cc3[nH]c(O)nc3cc2C)cc1 was Pks13 thioesterase: -11.32%; TcHisRS: 8.247%; LiHisRS: 10.34%.
Result for Cc1cc(C)n(CCN2CCC(N(C)Cc3noc(C4CC4)n3)C2)n1 (centres unmarked) was Pks13 thioesterase: -4.099%; TcHisRS: 5.217%; LiHisRS: 6.667%.
Result for CC(C)n1cc(-c2nc3cc(S(=O)(=O)N4CCCC4)ccc3n2C)cn1 was Pks13 thioesterase: -6.945%; TcHisRS: 4.878%; LiHisRS: 10.84%.
Result for CS(=O)(=O)N1C[C@@H]2CCN(C(=O)c3ccco3)[C@@H]2C1 was Pks13 thioesterase: -35.16%; TcHisRS: 1.149%; LiHisRS: 13.16%.
Result for Cn1nc(C2CCCC2)c(-c2ccc3c(c2)OCO3)c1N was Pks13 thioesterase: -4.799%; TcHisRS: 7.514%; LiHisRS: 17.02%.
Result for CO[C@H]1CNC[C@@H]1NC(=O)c1cc(C)nc2c(C)c(C)ccc12 was Pks13 thioesterase: -11.83%; TcHisRS: 8.287%; LiHisRS: 12.68%.
Result for Cc1noc(CNc2ccccc2CC(=O)N(C)C)n1 was Pks13 thioesterase: -12.17%; TcHisRS: 7.216%; LiHisRS: 11.43%.

Some entries from above, unchanged:

| Compound | Pks13 thioesterase | TcHisRS | LiHisRS |
|---|---|---|---|
| `COc1ncnc(N)c1CNCCc1ccc(-n2cccn2)cc1` | 1.424% | 12.06% | 22.35% |
| `Cc1cc(C)c(C(=O)NC(CN2CCCC2)c2ccccc2)c(=O)[nH]1` (centres unmarked) | -9.014% | 3.867% | 7.042% |